Measured values: article PMC12614781, “The VelB IDD promotes selective heterodimer formation of velvet proteins for fungal development” (Life Science Alliance, 2025)
Results are given in words; binding and its absence hold for the method and conditions named. In cells and extracts the contact can be indirect. A yes stands for co-enrichment or nearness to the bait. Other partners may have been found. For some assays here: Sequences can lack the tags named with a protein.

T1: VelB-GFP (A. nidulans Velvet-like B, full length, fused to GFP) (A. nidulans), C8VTS4
T1 chain: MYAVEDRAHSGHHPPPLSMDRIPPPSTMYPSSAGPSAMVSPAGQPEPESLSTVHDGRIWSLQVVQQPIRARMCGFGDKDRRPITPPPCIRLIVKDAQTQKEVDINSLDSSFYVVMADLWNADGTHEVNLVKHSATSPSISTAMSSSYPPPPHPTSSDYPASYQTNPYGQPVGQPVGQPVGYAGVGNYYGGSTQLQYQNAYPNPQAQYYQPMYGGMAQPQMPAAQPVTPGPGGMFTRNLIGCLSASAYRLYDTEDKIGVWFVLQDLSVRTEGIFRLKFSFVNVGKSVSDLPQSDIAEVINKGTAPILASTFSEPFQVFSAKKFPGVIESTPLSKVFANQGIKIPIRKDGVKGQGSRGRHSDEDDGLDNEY


Columns and labels:
[1] = target: VelB-GFP (A. nidulans Velvet-like B, full length, fused to GFP) (A. nidulans) (UniProt C8VTS4); experiment: affinity purification with mass spectrometry; GFP pull-down (GFP-Trap_A beads) of VelB-GFP or VelB^ΔIDD-GFP from vegetative A. nidulans mycelium (24 h, 37°C), intact veA; LC-MS/MS, LFQ; three biological replicates
[2] = target: VelB^ΔIDD-GFP (A. nidulans VelB lacking the intrinsically disordered domain, fused to GFP) (A. nidulans) (UniProt C8VTS4); experiment: as above
[3] = target: T1, VelB-GFP (A. nidulans Velvet-like B, …); experiment: affinity purification with mass spectrometry; settings: remark: other sources report otherwise

Row | Binder | binding [1] | binding [2] | binding [3]
1 | VeA (Velvet A), endogenous, A. nidulans (protein, UniProt C8VTV4 1-573) MATLAAPPPPLGESGNSNSVSRITREGKKITYKLNIMQQPKRARACGQGSKSHTDRRPVDPPPVIELNIFESDPHDDSNKTDITFVYNANFFLFATLEPERPIATGKLMTNQGSPVLTGVPVAGVAYLDKPNRAGYFIFPDLSVRNEGSYRFSFHLFEQIKDPKDATEGTQPMPSPVPGKLSSPQEFLEFRLEVISNPFIVYSAKKFPGLTTSTPISRMIAEQGCRVRIRRDVRMRRRGDKRTEDYDYDNERGYNNRRPDQYAGSDAYANAPERPRSTSISTNMDPYSYPSRRPSAVEYGQPIAQPYQRPMASTPAPSSTPIPAPIPMPGPVALPPSTPSPASAHAPAPPSVPLAAPPPLHTPSYQSHLSFGATQTQYPAPQLSHIPQQTTTPTHPYSPRSSISHSRNQSISEYEPSMGYPGSQTRLSAERPSYGQPSQTTSLPPLRHSLEPSVNSRSKTPSNMITSLPPIQSLSELPSTTSQPSSAIGSSPANEPGPRLWETNSMLSKRTYEESFGHDDRPLYNGMRPDSESYPGGMQRRPSYERSSLLDGPDQMAYKRANGRMVSKPATMR | binds | binds | 
2 | catalase CatB, endogenous, A. nidulans (enzyme, UniProt P78619 16-722) VCPYMTGELGRRDTNPDATEATEEFLSEYYLDDTDSYLTTDVGGPIEDQQSLKAGARGSTLLEDFIFRQKIQRFDHERVPERAVHARGAGAHGVFTSYGDFSNITAASFLSAEGKETPVFVRFSTVAGSRGSSDLARDVHGFATRFYTDEGNFDIVGNNIPVFFIQDAIQFPDLIHAVKPKGDREIPQAATAHDAAWDFFSQQPSTLHTLLWAMAGHGIPRSFRHVDGFGVHTFRLVTEDGSTKLVKFHWKTLQGLASMVWEEAQQISGKNPDYMRQDLFESIEAGRYPEWELNVQIMDEEDQLRFGFDLFDPTKIVPEEYVPLTPLGKMTLNRNPRNYFAETEQVMFQPGHVVRGVDFTEDPLLQQGRLFSYLDTQLNRNGGPNFEQLPINQPRVAIHNNNRDGAGQMFIPLNPDAYSPNTLKGSTLKQANQTAGRGFFTAPDRTANGNLVRAKSSTFDDAWSQPRLFWNSLLPAEKQFVVNAIRFENANVKSDVVKNNVIVQLNRISNDLATRVAKAIGVDAPEPDNTYYHDNTTSNIGAFGHRLQSLAGLKIAVLASVDAEESFSAATALKAELSNDNLDVIVVAERFSNGVNQTYSASDAIQFDAVVVAPGAEKLFGAKSAANSSSTLYPAGRPLEILVDAFRFGKPVAALGSGSTAFDNAGINTAVEGVYVADAVDESFANNLEEGLTVFKFLDRFALDSDE | binds | binds | 
3 | LaeA (loss of the aflatoxin regulator expression A), endogenous, A. nidulans, C8VQG9 1-374 (protein) MFEMGPVGTRLPAMTSPAHNHYSYHSPTSSDRGRSRQNSDAMDIQSITEREPATRYAVAGGPAPWNRNGSPSMSPMYSNNSERNQFHEENGRTYHGFRRGMYFLPCDEQEQDRLDIFHKLFTVARVSESLIYAPHPTNGRFLDLGCGTGIWAIEVANKYPDAFVAGVDLAPIQPPNHPKNCEFYAPFDFEAPWAMGEDSWDLIHLQMGCGSVMGWPNLYRRIFAHLRPGAWFEQVEIDFEPRCDDRSLDGTALRHWYDCLKQATAETMRPIAHSSRDTIKDLQDAGFTEIDHQIVGLPLNPWHQDEHERKVARWYNLAVSESIENLSLAPFSRVYRWPLERIQQLAADVKSEAFNKEIHAYNILHIYQARKPLR |  |  | binds
